From ChEMBL document CHEMBL3988442, “University of Dundee, Small-Polar-MMV Screening Library” (2021).

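Viability assay of Plasmodium falciparum sporozoites; the read-out is not stated. The concentration is filed as 10 mM, unlikely as a test dose, so the dose is not known. Higher reads as lower viability (inferred: compounds with an IC50 in retests scored well above the rest). Strong results were mostly tested again. About 34,000 compounds were tested under these conditions; 0.84% (about 280) showed 50% or more at least once.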

Values are the deposited “Percent Effect”, in %.
The controls that fix the scale are not given in the record; negative values are as filed.
The compounds are a random part of those screened.
Two or more numbers in one place are separate tests of the same structure; such repeats can differ widely.

{"compound": "Cc1cc(C)nc(Nc2cc(C)nc(C3CCN(C(C)C)C3)n2)n1", "stereo": "centres undefined", "Percent Effect": 15.29}
{"compound": "Clc1cccc(CNC2CCN(CCc3ccncc3)CC2)c1", "Percent Effect": -3.195}
{"compound": "Cc1cnn(C2CCCN(C(=O)Cc3cn4ccccc4n3)C2)c1", "stereo": "centres undefined", "Percent Effect": -17.66}
{"compound": "CC(C)n1c2ccccc2c2c1cc(C(=O)NC1CC1)n2C(=O)N(C)C", "Percent Effect": -5.267}
{"compound": "C1CCCN(C2CCCN(Cc3noc(C4CC4)n3)C2)CC1", "stereo": "centres undefined", "Percent Effect": 5.666}
{"compound": "Cc1nc(C2CCCN(C(=O)c3ccc(S(C)(=O)=O)cc3)C2)no1", "stereo": "centres undefined", "Percent Effect": -3.511}
{"compound": "CCN1C(=O)CC[C@]12CC[C@@H](NC(=O)NCc1cccnc1)CC2.O=C(O)C(F)(F)F", "Percent Effect": -1.226}
{"compound": "CCn1cc(CN2CCCN(C(=O)CCc3ccccc3)CC2)cn1", "Percent Effect": 7.157}
{"compound": "Cc1nnc(NC(=O)CN2CCCC2c2noc(C(C)C)n2)s1", "stereo": "centres undefined", "Percent Effect": -14.39}
{"compound": "Cc1nc2n(n1)CC(Nc1cc(C(F)(F)F)nc3ncnn13)CC2", "stereo": "centres undefined", "Percent Effect": -3.896}
{"compound": "COc1ccccc1CN1CCC(c2nccc(C)n2)C1", "stereo": "centres undefined", "Percent Effect": -0.9625}
{"compound": "O=C(C1CCCC1)N1CCOC(c2nc(-c3ncccn3)no2)C1", "stereo": "centres undefined", "Percent Effect": -14}
{"compound": "Cc1ccc(CNC(c2ccccc2)c2nccn2C)cc1C", "stereo": "centres undefined", "Percent Effect": -8.605}
{"compound": "Clc1ccccc1CN1CCCC(c2nnc(-c3cnccn3)o2)C1", "stereo": "centres undefined", "Percent Effect": 15.55}
{"compound": "O=C(NCc1nn(-c2ccccc2)c2c1CCC2)NC1CCC(O)CC1", "stereo": "centres undefined", "Percent Effect": 7.117}
{"compound": "CCSCC(C)NCc1nncn1C1CCCCC1", "stereo": "centres undefined", "Percent Effect": 12.09}
{"compound": "Cc1ccn(CCNC(=O)C2CCN(S(=O)(=O)c3ccc(F)cc3)C2)n1", "stereo": "centres undefined", "Percent Effect": 1.34}
{"compound": "CCOc1cccc(C(=O)Nc2ccncc2)c1", "Percent Effect": 5.64}
{"compound": "Cc1cccc2cc(C(=O)N3CCN(S(=O)(=O)N(C)C)CC3)n(C)c12", "Percent Effect": -20.24}
{"compound": "Fc1cccc(Oc2nccnc2C2CCN(C3CCOCC3)CC2)c1", "Percent Effect": 8.783}
{"compound": "COc1ccc(C[C@H]2CN(C(=O)CS(C)(=O)=O)CC[C@H]2OC)cc1", "Percent Effect": 20.58}
{"compound": "Cc1csc2c(C3CCCN(C(=O)CCn4cncn4)C3)nc(C)n12", "stereo": "centres undefined", "Percent Effect": -4.665}
{"compound": "CC(NC(=O)NCC1(c2ccccc2)CCC1)c1nncn1C", "stereo": "centres undefined", "Percent Effect": 2.2}
{"compound": "N#Cc1ccc(SCCC(=O)N(Cc2cccnc2)C2CC2)cc1", "Percent Effect": -12.32}
{"compound": "CCOCC1CN(C)Cc2cnn(CC3CCCC3)c21.O=C(O)C(F)(F)F.O=C(O)C(F)(F)F", "stereo": "centres undefined", "Percent Effect": -7.764}
{"compound": "CCNC(=O)NCCCn1nc2ccccn2c1=O", "Percent Effect": 4.185}
{"compound": "Cc1nc(CCC(=O)NC2CCC2)cc(C2CCCNC2)n1", "stereo": "centres undefined", "Percent Effect": 3.664}
{"compound": "COCCn1c2c(ccc1=O)CCN(C(=O)Cc1ccsc1)CC2", "Percent Effect": 16.35}
{"compound": "CCn1cc(CN2CCCn3nc(CNC(=O)C4CCC4)cc3C2)cn1", "Percent Effect": -8.724}
{"compound": "O=C(c1cc2ccccc2[nH]1)N1CCCCC1Cn1cccn1", "stereo": "centres undefined", "Percent Effect": 12.32}
{"compound": "CN1C[C@@H](C(=O)NCC(F)(F)F)[C@@]2(CCc3ccccc3C(=O)N2)C1", "Percent Effect": -6.725}
{"compound": "Cc1[nH]nc2ncc(C(=O)N3CCN(C(C)(C)C)CC3)cc12", "Percent Effect": 0.1095}
{"compound": "CCOCC1CN(C(=O)N(C)C)Cc2nn(C)cc21", "stereo": "centres undefined", "Percent Effect": -0.974}
{"compound": "O=C(O)C(F)(F)F.O=C(O)C(F)(F)F.c1cncc(CN2CCn3c(Cn4cncn4)cnc3C2)c1", "Percent Effect": -3.522}
{"compound": "Cc1ccc(-c2cc(C3CCNCC3)nc(C)n2)cc1.Cl", "Percent Effect": -1.033}
{"compound": "O=C(c1coc(COc2cccc(F)c2)n1)N1CC[C@H](O)[C@@H](O)C1", "Percent Effect": -4.824}
{"compound": "CCC(CN1CCCCC1)NC(=O)C1(c2cccc(F)c2)CC1.O=C(O)CC(O)(CC(=O)O)C(=O)O", "stereo": "centres undefined", "Percent Effect": 11.02}
{"compound": "Cc1cccnc1NC(=O)c1ccc(-n2ncc(C#N)c2N)cc1", "Percent Effect": 9.826}
{"compound": "COc1c(CNCCNC(=O)c2ccc(C)c(F)c2)c(C)nn1C", "Percent Effect": 12.64}
{"compound": "CN(C)C(=O)c1cc(-c2ccccc2)[nH]n1", "Percent Effect": -6.727}
{"compound": "CCOc1ncccc1C(=O)NC1CCCN(c2ncccn2)C1", "stereo": "centres undefined", "Percent Effect": -3.646}
{"compound": "N#Cc1ccc(NCCNc2ccc(C(F)(F)F)cn2)nc1", "Percent Effect": -0.9893}
{"compound": "Cc1cccc(-c2noc(CN3CCCC(Cn4cncn4)C3)n2)c1", "stereo": "centres undefined", "Percent Effect": "-20.27 & 7.319 & -20.56"}
{"compound": "[H][C@@]12COC[C@]1(COCc1cccnc1)CN(C(=O)c1cc(C)on1)C2", "Percent Effect": -1.676}
{"compound": "CC(OCC1CC1)C(=O)Nc1ncn(CC(=O)N2CCCCCC2)n1", "stereo": "centres undefined", "Percent Effect": 5.746}
{"compound": "[H][C@@]12COC[C@]1(C(=O)NC1CC(F)(F)C1)CN(Cc1ccsc1)C2", "Percent Effect": 7.24}
{"compound": "O=S(=O)(Cc1ccccc1)NCc1ccnc(O)c1", "Percent Effect": -12.12}
{"compound": "Cc1cc(-c2nnn(CCC(N)=O)n2)ccc1F", "Percent Effect": -8.138}
{"compound": "Cc1cccn2c(=O)cc(OC(=O)c3ccc(OC(C)C)cc3)nc12", "Percent Effect": -17.71}
{"compound": "COCC(=O)N1CCN(Cc2csc(-c3ncccn3)n2)CC1", "Percent Effect": "-31.63 & -33.22 & -17.89"}
{"compound": "CCN1CCC2(COCc3c(C)nc(N(C)C)nc32)C1", "stereo": "centres undefined", "Percent Effect": 3.133}
{"compound": "Cc1cc(C)nc(Nc2cccc(C3CCCN(C)C3)n2)n1.O=CO", "stereo": "centres undefined", "Percent Effect": -6.991}
{"compound": "Cc1cn[nH]c1C1CCCN1Cc1ccc(F)c(F)c1", "stereo": "centres undefined", "Percent Effect": 4.794}
{"compound": "Cc1ccc(F)c(C(=O)N2C[C@@H](C(=O)O)[C@H](c3ccncc3)C2)c1Cl", "Percent Effect": -6.462}
{"compound": "Cc1cc(C(=O)N2CCc3nnc(N)cc3C2)c(C)n1-c1ccccc1", "Percent Effect": "59.96 & -20.15 & -14.98"}
{"compound": "Cc1cccc(C)c1-c1cc(NCCO)nc2[nH]ccc12", "Percent Effect": 7.193}
{"compound": "CC(CN1CCOCC1)n1cncc1-c1ccc2c(c1)CCCN2C.Cl", "stereo": "centres undefined", "Percent Effect": 1.679}
{"compound": "CN(C)S(=O)(=O)N1CCCC(c2ccncn2)C1", "stereo": "centres undefined", "Percent Effect": -1.963}
{"compound": "CCCc1n[nH]c(C2CN(C(=O)c3ccc4c(c3)COC4)CCO2)n1", "stereo": "centres undefined", "Percent Effect": -7.286}
{"compound": "CC(C)C(C)NC(=O)Nc1cccn(C)c1=O", "stereo": "centres undefined", "Percent Effect": 12.18}